Reference: the supplement of paper PMC5949888
Most values lie at the floor of the assay. Slopes are relative: functional sequences can read slightly below zero.

These substances were tested on Saccharomyces cerevisiae PS128 hsf1 delta, HSF1(1-493) fusion (assay: growth estimate (transactivation domain function in HSF1 fusion, heat-shock survival) (a.u. (slope of normalised read count over time)); higher = stronger growth at 37°C, i.e. more transactivation activity). Conditions: library: random library.
WECYPSN was tested, and the growth estimate was < -0.25.
WEDLCAA was tested, and the growth estimate was < -0.25.
In the case of WEFASRLGSI, the growth estimate is reported as < -0.25.
In the case of WEFNISLGCGKQCSSCMGSL, the growth estimate is reported as < -0.25.
With WEIKRYSVSTHVTEIAICGR the growth estimate was < -0.25.
WELSIECSNRSYSVPASTGI was tested, and the growth estimate was -0.246.
In the case of WEVLRP, the growth estimate is reported as < -0.25.
With WFDAKPRHGMKPTVNWLRQI the growth estimate was < -0.25.
For WFLCWRLGYKSFLISGEGPG, the growth estimate was < -0.25.
WFLDHIGYI was tested, and the growth estimate was < -0.25.
For WFLLYCFLGSVSLCICGHLV, the growth estimate was < -0.25.
For WFVERIPIGPSSVLRRGSAG, the growth estimate was < -0.25.
With WFVTVGSQAYGDLTYSCPLS the growth estimate was < -0.25.
WFWQRYRHKEST gave a growth estimate of -0.229.
In the case of WFYGVYVVPSLD, the growth estimate is reported as < -0.25.
WGAVPDEA was tested, and the growth estimate was < -0.25.
WGELFFIWCPDNARMTGYAP was tested, and the growth estimate was < -0.25.
WGFFAVRL gave a growth estimate of 0.0983.
For WGHRGMEWALAKRRLRGSHY, the growth estimate was < -0.25.
WGKVALGSYKQSPAFMLGGN was tested, and the growth estimate was < -0.25.
In the case of WGLALALHREIMIQQAIRGQ, the growth estimate is reported as < -0.25.
WGLLFCSQFYVRSRMLLTYG was tested, and the growth estimate was < -0.25.
With WGPPVGPTCQ the growth estimate was < -0.25.
Substance WGPRD has a growth estimate of -0.167.
WGQGTDT was tested, and the growth estimate was < -0.25.
For WGQRERGLARAMVFLIQGLQ, the growth estimate was < -0.25.
WGRSRDARVRMGR was tested, and the growth estimate was < -0.25.
With WGRVKQVIGPIRP the growth estimate was < -0.25.
In the case of WGSLS, the growth estimate is reported as < -0.25.
WGTAGSNNFKRGGASHTTGL was tested, and the growth estimate was < -0.25.
For WGTASH, the growth estimate was < -0.25.
With WGTLARKSEDVILCVPFVTH the growth estimate was < -0.25.
For WGVDLHRQYGLSQGLVTVLL, the growth estimate was < -0.25.
For WGYR, the growth estimate was < -0.25.
For WGYRGNMQSPGH, the growth estimate was < -0.25.
For WGYWMRDMNQCLVGCSADTG, the growth estimate was < -0.25.
In the case of WHEITHRNARVLPGRIPQIG, the growth estimate is reported as < -0.25.
In the case of WHETYGIGD, the growth estimate is reported as < -0.25.
WHGGGRNGAMELS was tested, and the growth estimate was < -0.25.
WHIGVGHVI was tested, and the growth estimate was < -0.25.
In the case of WHLRMTVYAIVYHPALGEMI, the growth estimate is reported as < -0.25.
With WHPQESFVCEHVGHLSRETL the growth estimate was < -0.25.
For WHRNENKESLYALIGSCT, the growth estimate was < -0.253.
With WHSGAVAAIVMRAEGSTRRN the growth estimate was < -0.25.
With WHV the growth estimate was < -0.25.
WHVCSILCQWNSNLVH was tested, and the growth estimate was < -0.25.
WIAKENTRQEAHRRNEMLAR was tested, and the growth estimate was < -0.25.
With WIARRGGNSAPRSRCAKVQS the growth estimate was < -0.25.
For WIGVID, the growth estimate was < -0.25.
For WIHGRRIRPIVKFSLRSVHK, the growth estimate was < -0.25.
WILIDGSIRGVVTDGYDPRP was tested, and the growth estimate was < -0.25.
With WIPIRTALFFLSFRLTNIAS the growth estimate was < -0.25.
With WIR the growth estimate was < -0.25.
WISSIRHGRVGNFDITQRPL was tested, and the growth estimate was < -0.25.
WITNKRQDSPFGAMRGLCR was tested, and the growth estimate was < -0.25.
WITNVMSDHYCRNGPAPGLE was tested, and the growth estimate was < -0.25.
For WITW, the growth estimate was < -0.25.
For WIYPVRVLWRHPSGGELLSR, the growth estimate was < -0.25.
For WIYQVCLITGDTPACARIPQ, the growth estimate was < -0.25.
For WKAAMRVSCRSSGHPKLWTN, the growth estimate was < -0.25.
With WKGIHNGRGMPHWLGFTSRV the growth estimate was < -0.25.
For WKMCRCYIAMYQGRLLGIPA, the growth estimate was < -0.25.
WKNIGFNFL was tested, and the growth estimate was < -0.25.
With WKNVRRRGLLPGSLSRLH the growth estimate was < -0.25.
WKTRWAQCVRPARLLADPGW was tested, and the growth estimate was < -0.25.
In the case of WKYVYEPCGPRRLGRGAFCR, the growth estimate is reported as < -0.25.
WLA was tested, and the growth estimate was < -0.25.
In the case of WLAQLARGGDPAPYDLSFTR, the growth estimate is reported as < -0.25.
With WLCGKSLG the growth estimate was < -0.25.
In the case of WLGEAMDLDS, the growth estimate is reported as < -0.25.
In the case of WLGFSIRPFIWTFLF, the growth estimate is reported as < -0.25.
In the case of WLILPCWLCFHELLIHPIIF, the growth estimate is reported as < -0.25.
WLKE was tested, and the growth estimate was < -0.25.
For WLKESAM, the growth estimate was < -0.25.
WLKLM was tested, and the growth estimate was < -0.25.
In the case of WLSEDAEQRASQRLAWLKFD, the growth estimate is reported as < -0.25.
WLSTECLCQVQLLILVVIVS was tested, and the growth estimate was < -0.25.
In the case of WLVACRELTPAAFGQIAHAP, the growth estimate is reported as < -0.25.
For WMGRFRMPMYQTKFYKGGRP, the growth estimate was < -0.25.
